Measured values: PubChem BioAssay AID2685 (National Center for Advancing Translational Sciences (NCATS), 2010)
This is one part of the list. The main result of the screen is listed elsewhere. These columns were measured beside it and carry no call. Compounds called inactive in the main read-out are mostly missing here. Potencies come from curve fits of mixed quality, noted in brackets.

Assay: qHTS Assay for Lipid Storage Modulators in Drosophila S3 Cells;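 as to cell number change: cells counted by Cell Tracker Red CMTPX staining in the red channel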
Details: BODIPY lipid droplet fluorescence, 18-24 h; for cell number change: measured here: cell count max response, cells fed with added oleic acid
Outline: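 Laser-scanning cytometry quantifies lipid droplet accumulation (500–530 nm total intensity; droplet/cell object ratio) in oleic acid-fed (400 uM added) Drosophila S3 cells treated with a concentration series. 20 uM Triacsin C defined 100% inhibition.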

[1] = measured here: lipid fluorescence (Fed channel) AC50, cells fed with added oleic acid
[2] = measured here: cell number channel AC50, cells fed with added oleic acid

| Structure (SMILES) | cell number change | AC50 [1] | AC50 [2] |
| --- | --- | --- | --- |
| COc1ccc(CCNC(=O)c2cc3c(=O)n4ccccc4nc3n(CCCN3CCOCC3)c2=N)cc1 | 13.1% | 29.1 µM [rising, single point] |  |
| CCn1c(SCC(=O)Nc2nccs2)nnc1-c1ccc(S(=O)(=O)N2CCCCCC2)cc1 | -29.4% | 0.13 µM [rising, full curve, poor fit] |  |
| C=CCC(NC(=O)c1ccc(C#N)cc1)C(=O)NCCC (configuration not stated) | 15.2% | 29.1 µM [rising, single point] |  |
| CC1=CC(C)[C@H](/C=N/n2c(=O)[nH]c3c([nH]c4ccc(Br)cc43)c2=O)C(C)C1 (some centres not stated) | -79.7% | 5.17 µM [falling, partial curve] | 4.61 µM [falling, full curve] |
| O=C(NCCc1ccccn1)c1nc(Cn2ccc([N+](=O)[O-])n2)no1 | 17.1% | 0.00411 µM [falling, full curve, poor fit] |  |
| Cc1ccc(-n2cc(CN3CCC(O)(c4ccccn4)CC3)c(-c3ccc(F)cc3)n2)cc1 | -35.6% |  | 18.4 µM [falling, single point] |
| CCOc1ccc(S(=O)(=O)NCc2ccccn2)cc1NC(=O)c1ccccc1 | 15.8% |  | 2.31 µM [rising, single point] |
| COc1ccc(OC)c(NC(=O)CCCNC(=O)Cn2cnc3sc(C)c(C)c3c2=O)c1 |  | 6.51 µM [falling, single point] |  |
| O=C(CN1C(=O)COc2ccccc21)NCCN1CCCC1 | 0.917% | 29.1 µM [falling, single point] |  |
| O=C(CSc1ncn[nH]1)Nc1nnc(-c2ccccc2)s1 | 30% | 10.3 µM [rising, partial curve, poor fit] | 0.58 µM [rising, full curve, poor fit] |
| CC1CCc2ccccc2N1C(=O)c1cccs1 (configuration not stated) | -5.39% | 0.461 µM [falling, full curve] |  |
| CCc1ccccc1OCC(=O)Nc1ccc(C)c(S(=O)(=O)N2CCCCCC2)c1 | -14.3% | 2.91 µM [falling, partial curve] |  |
| O=C(NCCCN1CCCCC1)C1(S(=O)(=O)c2ccc(Cl)cc2)CC1 | -8.28% | 25.9 µM [falling, partial curve, poor fit] |  |
| Cc1ccc(NC(=O)C2CC3CCC2C3)c(Br)c1 (configuration not stated) | -7.37% |  |  |
| COc1ccc(C(C(=O)NC(C)(C)C)N(C(=O)CCC(=O)Nc2cc(C)on2)c2ccc3c(c2)OCCO3)cc1 (configuration not stated) | -5.71% | 29.1 µM [rising, single point] |  |
| COc1cc(C2CC(=O)OC3=C2C(=O)CC(C)(C)C3)cc(OC)c1OC (configuration not stated) | 8.39% |  | 0.651 µM [rising, single point] |
| CC(=O)CC(=O)Nc1ncc(C(F)(F)F)cc1Cl | -30.4% | 9.2 µM [falling, single point] | 1.84 µM [falling, partial curve] |
| Cc1nc(NC(=S)NC(=O)c2ccccc2)sc1C(=O)N(C)C | -6.72% |  |  |
| Cc1cccc(C(=O)Nc2nnc(SCC(=O)Nc3ccc4c(c3)oc3ccccc34)s2)c1 | -57.8% |  | 32.6 µM [falling, partial curve, poor fit] |
| Cc1c(Cl)cccc1NC(=O)CN1C(=O)CSc2ncccc21 | 18.6% | 0.82 µM [rising, single point] |  |

Of the compounds above, these have an aryl methoxy group:

| Structure (SMILES) | cell number change | AC50 [1] | AC50 [2] |
| --- | --- | --- | --- |
| COc1ccc(CCNC(=O)c2cc3c(=O)n4ccccc4nc3n(CCCN3CCOCC3)c2=N)cc1 | 13.1% | 29.1 µM [rising, single point] |  |
| COc1ccc(OC)c(NC(=O)CCCNC(=O)Cn2cnc3sc(C)c(C)c3c2=O)c1 |  | 6.51 µM [falling, single point] |  |
| COc1ccc(C(C(=O)NC(C)(C)C)N(C(=O)CCC(=O)Nc2cc(C)on2)c2ccc3c(c2)OCCO3)cc1 (configuration not stated) | -5.71% | 29.1 µM [rising, single point] |  |
| COc1cc(C2CC(=O)OC3=C2C(=O)CC(C)(C)C3)cc(OC)c1OC (configuration not stated) | 8.39% |  | 0.651 µM [rising, single point] |

(listing goes on)

| Structure (SMILES) | cell number change | AC50 [1] | AC50 [2] |
| --- | --- | --- | --- |
| COc1cc(N2CCCC2)c(OC)cc1/C=C(/C#N)c1cccc(F)c1 | -72.3% | 29.1 µM [falling, partial curve] | 29.1 µM [falling, single point] |
| Cc1cc(C)n2[nH]c(=O)c(N=Nc3ccccc3)c2n1 | 48.7% |  | 23.1 µM [rising, single point] |
| COc1cccc(-c2cc(C(F)(F)F)nc(-n3cccn3)n2)c1 | 87.9% | 2.91 µM [rising, partial curve] | 1.84 µM [rising, partial curve] |
| Cc1ccc(C23CC4CC(CC(NC(=O)N5CCN(C)CC5)(C4)C2)C3)cc1 | -19.3% |  |  |
| Cc1c(Br)c([N+](=O)[O-])nn1CC(=O)c1ccccc1 | 76.1% | 29.1 µM [rising, single point] | 29.1 µM [rising, single point] |
| COc1cccc(CC(=O)n2nc(N)c3cc4ccc(OC)cc4nc32)c1 | -20.1% | 29.1 µM [falling, single point] |  |
| CSc1nsc(SCC(=O)Nc2ccccc2F)n1 | -7.89% | 3.55 µM [rising, single point] |  |
| COc1ccc(C2/C(=C(/O)c3ccccc3)C(=O)C(=O)N2C)c(OC)c1 (configuration not stated) | 13.1% |  |  |
| CC(=O)C1=NN(c2ccccc2)C(c2cccs2)N1c1ccccc1 (configuration not stated) |  |  | 2.91 µM [rising, single point] |
| CCOc1cccc(C(=O)Nc2ccc(NC(=O)c3cc4ccccc4o3)c(OC)c2)c1 | -25.4% | 13 µM [falling, single point] |  |
| COc1ccccc1OCCn1nnc2ccccc21 | -7.14% |  |  |
| CC(C)(C)C(=O)NC(=C(Cl)Cl)P(=O)(O)O | -3.12% |  |  |
| CCCCc1c(O)nc(SCC(=O)N2CCCCC2)n(-c2ccccc2C)c1=O | 21% |  |  |
| Cn1c(C(=O)O)ccc1S(=O)(=O)N(Cc1ccccc1)Cc1ccccc1 | 5.54% | 6.51 µM [falling, single point] |  |
| O=C1N=C(N2CCCCC2)S/C1=C\c1ccccc1F | -7.94% |  |  |
| O=C(Nc1ccc(Br)c2cccnc12)c1ccc(Cn2cc(Cl)cn2)o1 | -20.1% | 1.03 µM [rising, full curve] |  |
| Nc1nccnc1C(=O)OCC(=O)NCCc1ccc(S(N)(=O)=O)cc1 | -22.5% | 20.6 µM [falling, single point] |  |
| Cc1ccc(S(=O)(=O)Nc2cc3c(cc2N2CCOCC2)n(C)c(=O)c(=O)n3C)cc1 | 5.28% | 29.1 µM [falling, single point] |  |
| O=C(c1cc(C2CC2)nc2ccccc12)N1N=C(C(F)F)CC1(O)C(F)F (configuration not stated) | -33.7% |  | 8.2 µM [falling, partial curve] |
| Cc1ccc(NC(=O)CCn2c(=O)[nH]c3ccsc3c2=O)cc1F | 95% |  | 23.1 µM [rising, single point] |

| Structure (SMILES) | cell number change | AC50 [1] | AC50 [2] |
| --- | --- | --- | --- |
| CCNC(=S)NCCN1CCOCC1 | 33.3% |  | 32.6 µM [rising, single point] |
| O=c1sc2ccccc2c(N2CCCC2)c1[N+](=O)[O-] | -43.6% | 2.31 µM [falling, partial curve] | 11.6 µM [falling, partial curve, poor fit] |
| CC(=O)Nc1ccc(S(=O)(=O)N2CCN(C(=O)C3COc4ccccc4O3)CC2)cc1 (configuration not stated) | 39% | 25.9 µM [rising, partial curve] | 32.6 µM [rising, single point] |
| Cc1cccc(C(=O)NCC2CCN(C(=O)c3cccc(C)c3)CC2)c1 | -0.99% |  | 0.92 µM [rising, full curve, poor fit] |
| Cc1ccc(C(=O)Nc2ccc(C)c(S(=O)(=O)N(C)C)c2)s1 | 31.6% |  | 5.17 µM [rising, partial curve] |
| O=S(=O)(NCCCCCNS(=O)(=O)c1c(F)cccc1F)c1ccc2c(c1)OCCO2 | -46.4% | 7.31 µM [falling, partial curve] | 7.31 µM [falling, partial curve] |
| C=C[C@@H]1c2ccccc2N(S(=O)(=O)c2ccc(C)cc2)[C@H](c2ccc(OC(C)=O)cc2)C1(C#N)C#N | -30.6% |  | 7.31 µM [falling, full curve, poor fit] |
| CCCCNC(=O)[C@]1(C)CCC[C@@]2(C)C3CC[C@@]4(C)C[C@]3(CCC21)CC4=O (some centres not stated) |  | 0.58 µM [falling, partial curve] |  |
| O=C(NNC(=O)c1ccc[nH]1)Nc1cccc(C(F)(F)F)c1 | -52% | 29.1 µM [falling, single point] | 29.1 µM [falling, single point] |
| O=C(Nc1cccc(C(=O)O)c1)/C(=C/c1ccc([N+](=O)[O-])cc1)NC(=O)c1ccccc1 |  | 0.146 µM [falling, full curve] |  |
| C=CCc1cccc(/C=N/NC(=O)c2ccc3nc[nH]c3c2)c1O | -15.2% | 29.1 µM [falling, single point] |  |
| CCN1C(=O)[C@H]2[C@@H](c3ccc(C)cc3)N3C(=O)N(c4ccc(C(F)(F)F)cc4)C(=O)[C@@]3(CC(C)C)[C@H]2C1=O |  | 20.6 µM [falling, partial curve, poor fit] |  |
| O=C(NCCS(=O)(=O)N1CCC2(CC1)OCCO2)c1ccccc1 | 2.33% | 0.13 µM [falling, full curve, poor fit] | 0.116 µM [falling, full curve, poor fit] |
| Cc1ccc(N2C(=O)NC(NC(=O)C(C)(C)C)(C(F)(F)F)C2=O)cc1C (configuration not stated) | 143% |  |  |
| Cc1ccc(S(=O)(=O)Nc2nc3ccc(N)cc3s2)cc1 | -0.435% |  |  |
| CSCC(C)N1CCC(n2nccc2NC(=O)c2ccc3c(c2)OCO3)CC1 (configuration not stated) | -8.49% | 29.1 µM [rising, single point] |  |
| CCCN(C(=O)CCNC(=O)Cn1cnc2ccccc2c1=O)c1cccc(Cl)c1 | -0.84% | 6.51 µM [falling, single point] |  |
| C=CCN1C(=O)CSc2ccc(C(=O)NCCC3=CCCCC3)cc21 |  | 0.116 µM [rising, full curve, poor fit] | 6.51 µM [rising, partial curve, poor fit] |
